Measurements published in US5162305 (dated 1992).
*: point of attachment. Tos = Cc1ccc(S(=O)(=O)*)cc1; ClZ = O=C(OCc1ccccc1Cl)*; Boc = CC(C)(C)OC(=O)*; OcHex = C1CCC(O*)CC1; OBn = c1ccc(CO*)cc1; Bn = c1ccc(C*)cc1; NHNH2 = NN*

Experiment: general procedure: solution-phase peptide synthesis; azide method (isoamyl nitrite/HCl-dioxane); OSu active esters; TFA-ONp (p-nitrop)
Conditions: coupling step

Compared with “Boc Gly-Ser(Bzl)-Asn-Leu-Ser(Bzl)-Thr(Bzl)-Asp--OEt”, “Boc-8-Ala-Ser(Bzl)-Asn-Leu-Ser(Bzl)-Thr(Bzl)-Asp--OEt” is higher in step yield: 83.1% for the first, 90.4% for the second.

Compared with “Boc-AK(ClZ)LQT(Bn)PR(Tos)T(Bn)D(OcHex)VGAGT(Bn)P-NH2”, “Boc-ALS(Bn)QE(OcHex)LGK(ClZ)LQT(Bn)PQT(Bn)D(OcHex)VGAGT(Bn)P-NH2” is lower in step yield: 97.2% for the first, 96.1% for the second.

Compared with “Boc-ALS(Bn)QE(OcHex)LNK(ClZ)LQT(Bn)PQT(Bn)D(OcHex)VGAGT(Bn)P-NH2”, “Boc-ALS(Bn)QE(OcHex)LNNLQT(Bn)PQT(Bn)D(OcHex)VGAGT(Bn)P-NH2” is lower in step yield: 96.7% for the first, 80.8% for the second.

Compared with “Boc-Abu-Asn-Leu-Ser(Bzl)-Thr(Bzl)-Cec--OCH3”, “Boc-Acp-Asn-Leu-Ser(Bzl)-Thr(Bzl)-Asp--OEt” is higher in step yield: 67.9% for the first, 78.5% for the second.

Going from “Boc-Acp-Asn-Leu-Ser(Bzl)-Thr(Bzl)-Glu--OCH3” to “Boc-Asn-Leu-Ser(Bzl)-Thr(Bzl)-Lys(COCH2 CH2 COOH)--OCH3”, the step yield falls from 86.7% to 71.4%.

Compared with “Boc-Asn-Lys(Cl-Z)-Leu-Gln-Thr(Bzl)-Tyr(Cl2 -Bzl)-Pro-Gln-Thr(Bzl)-Asp(OcHex)-Val-Gly-Ala-Gly-Thr(Bzl)-Pro--NH2”, Boc-D(OEt)VGAGT(Bn)P-NH2 is lower in step yield: 86.8% for the first, 86.2% for the second.

Going from “Boc-D(OcHex)K(ClZ)LQT(Bn)PQT(Bn)D(OcHex)VGAGT(Bn)P-NH2” to “Boc-D(OcHex)K(ClZ)LQT(Bn)PR(Tos)T(Bn)D(OcHex)VGAGT(Bn)P-NH2”, the step yield rises from 71.7% to 98.3%.

Going from Boc-D(OcHex)VGAGT(Bn)P-NH2 to “Boc-E(OBn)LHGLQT(Bn)PGT(Bn)D(OcHex)VGAGT(Bn)P-NH2”, the step yield falls from 83.0% to 78.9%.

Compared with “Boc-E(OBn)LHK(ClZ)LQT(Bn)LPR(Tos)T(Bn)D(OcHex)VGAGT(Bn)P-NH2”, “Boc-E(OBn)LHK(ClZ)LQT(Bn)PGT(Bn)D(OcHex)VGAGT(Bn)P-NH2” is lower in step yield: 73.0% for the first, 70.4% for the second.

First: Boc-E(OEt)LHK(ClZ)LQT(Bn)PR(Tos)T(Bn)D(OEt)VGAGT(Bn)P-NH2
Second: Boc-E(OcHex)LHGLQT(Bn)PR(Tos)T(Bn)D(OcHex)VGAGT(Bn)P-NH2
The step yield of the first is higher: 96.3% for the first, 91.1% for the second.

Compared with “Boc-E(OcHex)LHK(ClZ)LQT(Bn)PQT(Bn)D(OBn)VGAGT(Bn)P-NH2”, “Boc-E(OcHex)LHK(ClZ)QT(Bn)PQT(Bn)D(OBn)VGAGT(Bn)P-NH2” is lower in step yield: 95.9% for the first, 91.0% for the second.

First: Boc-E(OcHex)LHK(ClZ)QT(Bn)PR(Tos)T(Bn)D(OcHex)VGAGT(Bn)P-NH2
Second: Boc-E(OcHex)LHLQT(Bn)PT(Bn)D(OcHex)VGAGT(Bn)P-NH2
The step yield of the first is lower: 92.2% for the first, 95.0% for the second.

First: Boc-FK(ClZ)LQT(Bn)PR(Tos)T(Bn)D(OcHex)VGAGT(Bn)P-NH2
Second: Boc-GK(ClZ)LQT(Bn)PNT(Bn)D(OcHex)VGAGT(Bn)P-NH2
The step yield of the first is higher: 97.2% for the first, 85.7% for the second.

First: Boc-GK(ClZ)LQT(Bn)PQT(Bn)D(OcHex)VGAGT(Bn)P-NH2
Second: Boc-GK(ClZ)LQT(Bn)PR(Tos)T(Bn)D(OcHex)VGAGT(Bn)P-NH2
The step yield of the first is lower: 62.9% for the first, 92.0% for the second.

First: Boc-GK(ClZ)LQT(Bn)Y(Bn)PR(Tos)T(Bn)D(OBn)VGAGT(Bn)P-NH2
Second: Boc-GLQT(Bn)PGT(Bn)D(OcHex)VGAGT(Bn)P-NH2
The step yield of the first is higher: 94.6% for the first, 81.2% for the second.

Going from “Boc-GLQT(Bn)PR(Tos)T(Bn)D(OcHex)VGAGT(Bn)P-NH2” to “Boc-GLS(Bn)QE(OBn)LHGLQT(Bn)PGT(Bn)D(OcHex)VGAGT(Bn)P-NH2”, the step yield falls from 95.0% to 78.9%.

Compared with “Boc-GLS(Bn)QE(OcHex)LHGLQT(Bn)PR(Tos)T(Bn)D(OcHex)VGAGT(Bn)P-NH2”, “Boc-GNLQT(Bn)PQT(Bn)D(OcHex)VGAGT(Bn)P-NH2” is lower in step yield: 97.9% for the first, 78.4% for the second.

First: Boc-GS(Bn)NL-OEt
Second: Boc-Gln-Glu(OBzl)-Leu-His-Lys(Bz)-Leu-Gln-Thr(Bzl)-Tyr(Bzl)-Pro-Arg(Tos)-Thr(Bzl)-Asp(OBzl)-Val-Gly-Ala-Gly-Thr(Bzl)-Pro--NH2
The step yield of the first is lower: 87.7% for the first, 90.9% for the second.

Compared with “Boc-Gln-Glu(OcHex)-Leu-Asn-Lys(Cl-Z)-Leu-Gln-Thr(Bzl)-Tyr(Cl2-Bzl)-Pro-Gln-Thr(Bzl)-Asp(OcHex)-Val-Gly-Ala-Gly-Thr(Bzl)-Pro--NH2”, “Boc-Gln-Glu(OcHex)-Leu-Gln-Lys(Cl-Z)-Leu-Gln-Thr(Bzl)-Pro-Arg(Tos)-Thr(Bz)-Asp(OcHex)-Val-Gly-Ala-Gly-Thr(Bzl)-Pro--NH2” is higher in step yield: 89.8% for the first, 93.2% for the second.

Going from “Boc-Gln-Glu(OcHex)-Leu-Gly-Lys(Cl-Z)-Leu-Gln-Thr(Bzl)-Tyr(Cl-Bzl)-Pro-Gln-Thr(Bzl)-Asp(OcHex)-Val-Gly-Ala-Gly-Thr(Bzl)-Pro--NH2” to “Boc-Gln-Glu(OcHex)-Leu-His(Tos)- Lys(Cl-Z)-Leu-Gln-Thr(Bzl)-Pro-Arg(Tos)-Thr(Bzl)-Asp(OcHex)-Val-Gly-Ala-Gly-Thr(Bzl)-Pro--NH2”, the step yield rises from 89.3% to 91.4%.

First: Boc-Gln-Glu(OcHex)-Leu-His(Tos)-Lys(Cl-Z)-Gln-Thr(Bzl)-Tyr(Cl2 -Bzl)-Pro-Arg(Tos)-Thr(Bzl)-Asp(OBzl)-Val-Gly-Ala-Gly-Thr(Bzl)-Pro--NH2
Second: Boc-Gln-Glu(OcHex)-Leu-His(Tos)-Lys(Cl-Z)-Leu-Gln-Thr(Bzl)-D-Tyr(Cl2 -Bzl)-Pro-Arg(Tos)-Thr(Bzl)-Asp(OcHex)-Val-Gly-Ala-Gly-Thr(Bzl)-Pro--NH2
The step yield of the first is lower: 92.3% for the first, 98.2% for the second.

Going from “Boc-Gln-Glu(OcHex)-Leu-His(Tos)-Lys(Cl-Z)-Leu-Gln-Thr(Bzl)-Pro-Arg(Tos)-Thr(Bzl)-Asp(OEt)-Val-Gly-Ala-Gly-Thr(Bzl)-Pro--NH2” to “Boc-Gln-Glu(OcHex)-Leu-His(Tos)-Lys(Cl-Z)-Leu-Gln-Thr(Bzl)-Pro-Asn-Thr(Bzl)-Asp(OcHex)-Val-Gly-Ala-Gly-Thr(Bzl)-Pro--NH2”, the step yield falls from 94.1% to 86.9%.

Going from “Boc-Gln-Glu(OcHex)-Leu-His(Tos)-Lys(Cl-Z)-Leu-Gln-Thr(Bzl)-Pro-Thr(Bzl)-Asp(OBzl)-Val-Gly-Ala-Gly-Thr(Bzl)-Pro--NH2” to “Boc-Gln-Glu(OcHex)-Leu-His(Tos)-Lys(Cl-Z)-Leu-Gln-Thr(Bzl)-Tyr(Cl2-Bzl)-Pro-Gln-Thr(Bzl)-Asp(OcHex)-Val-Gly-Ala-Gly-Thr(Bzl)-Pro--NH2”, the step yield falls from 94.7% to 88.6%.

Going from “Boc-Gln-Glu(OcHex)-Leu-His-Lys(cl-Z)-Gln-Thr(Bzl)-Pro-Gln-Thr(Bzl)-Asp(OBzl)-Val Gly-Ala-Gly-Thr(Bzl)-Pro--NH2” to “Boc-Gln-Glu(OcHex)-Leu-Lys(Cl-Z)-Leu-Gln-Thr(Bzl)-Tyr(Cl2-Bzl)-Pro-Gln-Thr(Bzl)-Asp(OcHex)-Val-Gly-Ala-Gly-Thr(Bzl)-Pro--NH2”, the step yield rises from 90.9% to 95.4%.

Compared with “Boc-Gln-Glu(OcHex)-Leu-Tyr(Cl2-Bzl)-Lys(Cl-Z)-Leu-Gln-Thr(Bzl)-Pro-Gln-Thr(Bzl)-Asp(OcHex)-Val-Gly-Ala-Gly-Thr(Bzl)-Pro--NH2”, “Boc-Gln-Thr(Bzl)-D-Tyr(Cl2 -Bzl)-Pro-Arg(Tos)-Thr(Bzl)-Asp(OcHex)-Val-Gly-Ala-Gly-Thr(Bzl)-Pro--NH2” is lower in step yield: 94.1% for the first, 92.8% for the second.

Compared with “Boc-Gln-Thr(Bzl)-Pro-Gln-Thr(Bzl)-Asp(OBzl)-Val-Gly-Ala-Gly-Thr(Bzl)-Pro-- NH2”, “Boc-Gln-Thr(Bzl)-Tyr(Cl2 -Bzl)-Pro-Arg(Tos)-Thr(Bzl)-Asp(OBzl)-Val-Gly-Ala-Gly-Thr(Bzl)-Pro--NH2” is higher in step yield: 89.8% for the first, 97.3% for the second.

Going from “Boc-Gln-Thr(Bzl)-Tyr(Cl2 -Bzl)-Pro-Gln-Thr(Bzl)-Asp(OcHex)-Val-Gly-Ala-Gly-Thr(Bzl)-Pro--NH2” to “Boc-Glu(OBzl)-Leu-His-Lys(Bz)-Leu-Gln-Thr-(Bzl)-Tyr(Bzl)-Pro-Arg(Tos)-Thr(Bzl)-Asp-(OBzl)-Val-Gly-Ala-Gly-Thr(Bzl)-Pro--NH2”, the step yield falls from 90.8% to 75.1%.

Compared with “Boc-Glu(OcHex)-Leu-His(Tos)-Lys(Cl-Z)-Leu-Gln-Thr(Bzl)-D-Tyr(Cl2 -Bzl)-Pro-Arg(Tos)-Thr(Bzl)-Asp(OcHex)-Val-Gly-Ala-Gly-Thr(Bzl)-Pro--NH2”, “Boc-Glu(OcHex)-Leu-His(Tos)-Lys(Cl-Z)-Leu-Gln-Thr(Bzl)-Pro-Arg(Tos)-Thr(Bzl)-Asp(OcHex)-Val-Gly-Ala-Gly-Thr(Bzl)-Pro--NH2” is higher in step yield: 92.9% for the first, 95.7% for the second.

Compared with “Boc-Gly-Leu-Ser(Bzl)-Gln-Glu(OcHex)-Leu-His(Tos)-Lys(Cl-Z)-Leu-Gln-Thr(Bzl)-Pro-Arg(Tos)-Thr(Bzl)-Asp(OcHex)-Val-Gly-Ala-Gly-Thr(Bzl)-Pro--NH2”, “Boc-Gly-Lys(Cl-Z)-Leu-Gln-Thr(Bzl)-Tyr(Cl-Bzl)-Pro-Gln-Thr(Bzl)-Asp(OcHex)-Val-Gly-Ala-Gly-Thr(Bzl)-Pro--NH2” is lower in step yield: 96.8% for the first, 91.5% for the second.

First: Boc-Gly-Ser(Bzl)-Asn-Leu-Ser(Bzl)-Thr(BzI)-Glu--OBzl
Second: Boc-His(Tos)-Lys(Cl-Z)-Gln-Thr(Bzl)-Tyr(Cl2 -Bzl)-Pro-Arg(Tos)-Thr(Bzl)-Asp(OBzl)-Val-Gly-Ala-Gly-Thr(Bzl)-Pro--NH2
The step yield of the first is lower: 79.4% for the first, 93.6% for the second.

Going from “Boc-His(Tos)-Lys(Cl-Z)-Leu-Gln-Thr(Bzl)-D-Tyr(Cl2 -Bzl)-Pro-Arg(Tos)-Thr(Bzl)-Asp(OcHex)-Val-Gly-Ala-Gly-Thr(Bzl)-Pro--NH2” to “Boc-His(Tos)-Lys(Cl-Z)-Leu-Gln-Thr(Bzl)-Pro-Arg(Tos)-Thr(Bzl)-Asp(OEt)-Val-Gly-Ala-Gly-Thr(Bzl)-Pro--NH2”, the step yield falls from 89.0% to 87.5%.

First: Boc-His(Tos)-Lys(Cl-Z)-Leu-Gln-Thr(Bzl)-Pro-Arg(Tos)-Thr(Bzl)-Asp(OcHex)-Val-Gly-Ala-Gly-Thr(Bzl)-Pro--NH2
Second: Boc-His(Tos)-Lys(Cl-Z)-Leu-Gln-Thr(Bzl)-Pro-Asn-Thr(Bzl)-Asp(OcHex)-Val-Gly-Ala-Gly-Thr(Bzl)-Pro--NH2
The step yield of the first is higher: 99.7% for the first, 83.5% for the second.

In the case of “Boc-His(Tos)-Lys(Cl-Z)-Leu-Gln-Thr(Bzl)-Pro-Thr(Bzl)-Asp(OBzl)-Val-Gly-Ala-Gly-Thr(Bzl)-Pro--NH2”, the step yield is reported as 91.3%.

Same assay, conditions: cyclisation step

“-COCH2 CH2 Co-Asn-Leu-Ser(Bzl)-Thr(Bzl)-Lys--OCH3” gave a cyclisation yield of 34.9%.

Same assay, conditions: late stage modification step

Going from Boc-8-Ala-Ser(Bzl)-Asn-Leu--N2 H3 to Boc-Abu-Ser(Bzl)-Asn-Leu--N2 H3, the step yield rises from 58.7% to 76.1%.

In the case of Boc-GS(Bn)NL-NHNH2, the step yield is reported as 79.0%.
